# Laboratory results published in PubChem BioAssay (EPA / NIEHS).
# Protein sequences, listed by entry. Tags and fused reporters are not part of them. Lines headed by an entry give the natural chain unless they say otherwise; changes in a name come on top.
# UniProt P10828: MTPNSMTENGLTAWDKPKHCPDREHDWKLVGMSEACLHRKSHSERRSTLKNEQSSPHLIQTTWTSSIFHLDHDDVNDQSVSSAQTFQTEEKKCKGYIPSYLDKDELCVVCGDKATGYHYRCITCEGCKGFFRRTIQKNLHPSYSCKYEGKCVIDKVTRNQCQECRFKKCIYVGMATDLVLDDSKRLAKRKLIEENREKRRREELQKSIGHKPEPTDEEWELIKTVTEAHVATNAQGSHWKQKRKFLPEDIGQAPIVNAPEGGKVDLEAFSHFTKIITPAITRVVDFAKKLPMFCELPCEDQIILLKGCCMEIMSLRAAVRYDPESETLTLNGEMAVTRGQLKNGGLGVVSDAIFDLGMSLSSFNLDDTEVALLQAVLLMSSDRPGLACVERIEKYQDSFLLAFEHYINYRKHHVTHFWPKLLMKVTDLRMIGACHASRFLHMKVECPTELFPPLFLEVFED
# UniProt P19793: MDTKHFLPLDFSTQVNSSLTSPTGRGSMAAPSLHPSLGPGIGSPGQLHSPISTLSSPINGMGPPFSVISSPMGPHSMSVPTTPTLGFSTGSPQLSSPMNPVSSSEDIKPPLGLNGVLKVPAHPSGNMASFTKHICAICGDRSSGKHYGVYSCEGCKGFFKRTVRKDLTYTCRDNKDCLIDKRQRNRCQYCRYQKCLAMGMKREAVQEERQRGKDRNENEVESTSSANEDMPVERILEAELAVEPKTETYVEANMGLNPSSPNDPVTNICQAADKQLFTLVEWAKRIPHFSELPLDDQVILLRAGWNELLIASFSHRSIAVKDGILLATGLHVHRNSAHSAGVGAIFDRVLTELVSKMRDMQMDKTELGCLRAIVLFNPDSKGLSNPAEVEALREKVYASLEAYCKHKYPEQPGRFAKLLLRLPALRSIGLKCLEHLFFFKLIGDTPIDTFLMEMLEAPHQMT
# This list was built around the results that the source calls inconclusive (neither active nor inactive); the mix of calls is not that of the screen. Potencies of inconclusive entries are doubtful fits and often do not repeat. Active and inactive are the calls of the source. Rule for the calls: active = hit-call score of the fitted dose curve at least 0.9, where 1 is the maximum; inconclusive = response in the unintended direction; inactive = score below 0.9.
# Target: THRB (gene 7068) (UniProt P10828)
# Assay: TOX21_TRB_BLA_Agonist_Followup_ratio: Tox21 Thyroid Hormone Receptor beta Agonism Beta-lactamase (BLA) Follow-Up Assay, Ratio (AID 2283954)
# Method in brief: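 Agonist mode: compounds (11-point, triplicate) incubated 18 h with HEK293T cells carrying GAL4-DBD/human TRβ-LBD and UAS-β-lactamase. Blue/green (460/530 nm) FRET ratio read after 2 h CCF4-AM loading; CellTiter-Glo viability run in the same plates.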
SMILES,AC50,outcome
C[C@]12CC[C@H]3C(=CCc4cc(O)ccc43)[C@@H]1CCC2=O,inconclusive: 21.9 µM,
O=c1[nH]cnc2c1ncn2[C@H]1CC[C@@H](CO)O1,active: 9.78 µM,
O=S(=O)(O)c1ccc2ccccc2c1,,inactive
O=C(O)Cc1cc(I)c(Oc2cc(I)c(O)c(I)c2)c(I)c1,active: 0.0242 µM,
CCCCCCC(O)CO (configuration not stated),,inactive
O=C(c1ccccc1)c1ccc(O)cc1O,inconclusive: 38.3 µM,

# Quoted at random: 2 compounds from above, in no set order.
SMILES,AC50,outcome
O=c1[nH]cnc2c1ncn2[C@H]1CC[C@@H](CO)O1,active: 9.78 µM,
C[C@]12CC[C@H]3C(=CCc4cc(O)ccc43)[C@@H]1CCC2=O,inconclusive: 21.9 µM,

# System: not listed separately
# Assay: TOX21_TRB_BLA_Antagonist_Followup_viability: Viability Assessment in the Tox21 Thyroid Hormone Receptor beta Antagonism Beta-lactamase (BLA) Follow-Up Assay (AID 2283961)
# Method in brief: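 HEK293T cells stably expressing GAL4-DBD/human TRβ-LBD with UAS-bla reporter, 3,000 cells/well in phenol red-free DMEM, 2% charcoal-stripped FBS. Compounds at 11 concentrations in triplicate, 18 h at 37C/5% CO2; viability by CellTiter-Glo luminescence after 30 min at room temperature.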
SMILES,outcome,AC50
Cc1nccn1-c1ccc(Sc2cccc(C3(C(N)=O)CCOCC3)c2)cc1,inactive,
Nc1ccn([C@@H]2O[C@H](CO)[C@@H](O)C2O)c(=O)n1 (some centres not stated),inactive,
O=c1[nH]cc(F)c(=O)[nH]1,,inconclusive: 39.1 µM

# Target: Retinoic acid receptor RXR-alpha (Homo sapiens) (UniProt P19793)
# Assay: TOX21_TR_RXR_BLA_Agonist_Followup_ratio: Tox21 Thyroid Hormone Receptor beta Retinoid X Receptor alpha (RXRa) Agonism Beta-lactamase (BLA) Follow-Up Assay, Ratio (AID 2283968)
# Description: GeneBLAzer RXRa-UAS-bla HEK293T assay (RXRa-bla) (ThermoFisherScientific Catalog No. K1697) was run in qHTS 1536 well format as a secondary assay for specificity of response in the TOX21_TR_GH3_LUC_Agonist assay.TOX21_TR_RXR_BLA_Agonist_Followup_ratio is an assay readout measuring reporter gene via receptor activity and designed using inducible reporter (beta lactamase induction) detected with GAL4 b-lactamase reporter gene. The signal is derived from the ratio of cleaved (ch2) to uncleaved (ch1) reporter gene substrate used as the measure of target activity.Data from the assay component TOX21_TR_RXR_BLA_Agonist_Followup_ratio was analyzed into 1 assay endpoint. This assay endpoint, TOX21_TR_RXR_BLA_Agonist_Followup_ratio, was analyzed in the positive analysis fitting direction relative to DMSO as the negative control and baseline of activity. Using a type of inducible reporter, gain-of-signal activity can be used to understand changes in the reporter gene as they relate to the gene RXRA. Furthermore, this assay endpoint can be referred to as a primary readout, because this assay has produced multiple assay endpoints and this ratio serves a reporter gene function to understand target activity. To generalize the intended target to other relatable targets, this assay endpoint is annotated to the nuclear receptor intended target family, where subfamily is non-steroidal.
# After5-h incubation at 37C/5% CO2 for cell attachment, 23 nL of follow-up compounds dissolved in DMSO, 11 concentrations in triplicate, and the positive control (9-cis retinoic acid) were transferred to the assay plates using a Pintool station. The assay plates were incubated at 37C/5% CO2 for 16h. One microliter of LiveBLAzer FRET-B/GCCF4-AM substrate (Life Technologies) was added to each well using an FRD. After 2-h incubation at room temperature, the fluorescence intensity was measured using an Envision plate reader (Perkin Elmer). Data were expressed as the ratio of 460:530 nm.
row,SMILES,AC50
1,C[C@]12CC[C@H]3C(=CCc4cc(O)ccc43)[C@@H]1CCC2=O,inconclusive: 69.7 µM
2,O=C(O)Cc1cc(I)c(Oc2cc(I)c(O)c(I)c2)c(I)c1,active: 31.5 µM
3,CC(C)(C)c1cc(C(C)(C)C)c(O)c(C(C)(C)C)c1,active: 59.6 µM
